# In the supplement of paper PMC9135407:
# Where “and” joins values, the source holds several entries; their conditions need not be identical. Equal entries are not always repeated. Structures can show the parent of a compound that is named as a salt. ± gives the standard deviation of the averaged measurements. Some of the results follow. Plates or batches differ in their baseline, so values are only roughly comparable.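 Assay uses culture-activated primary human stellate myofibroblasts; lipid droplet recovery indicates inactivation. Measured: proportion of Hoechst-counted cells over a plate-specific Bodipy cutoff, duplicate wells, DMSO and nortriptyline as per-plate negative and positive controls. A hit scores, control-normalized, above the plate's top-tenth-percentile nortriptyline wells or ranks among its three best wells. Final well concentrations not reported.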
# Test system: primary human hepatic stellate cells (donor 1)
# Experiment: percent Bodipy-positive cells; higher = more lipid droplet accumulation
# Conditions: 48 h
# Method: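 Primary lipid accumulation screen in primary human hepatic stellate cell myofibroblasts (donor 1, passage 8) in 384-well plates. 100 nL of library compound was pin-transferred into 30 µL medium in duplicate, and cells were treated for 48 h. The 'Scaled' score combines distance from plate baseline, toxicity and reproducibility penalties, and is normalised to nortriptyline (positive) and DMSO (negative) controls on each plate. A hit is defined as scaled >0.85 or among the top 3 wells per plate.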
# [1] = library stock concentration: 80 uM
# [2] = library stock concentration: 400 uM
# [3] = library stock concentration: 2 mM
# [4] = library stock concentration: 3.33 mM
# [5] = library stock concentration: 10 mM
# [6] = library stock concentration: 1 mM
smiles,measurement,setting,value
Cc1ncc(-c2ccnc(Nc3ccc(S(C)(=O)=O)cc3)n2)n1C(C)C,percent Bodipy-positive cells,[1],70.5 ± 3.5%
same,percent Bodipy-positive cells,[2],74 ± 3%
same,percent Bodipy-positive cells,[3],62.2 ± 11%
same,percent Bodipy-positive cells,[4],40.4 ± 6.4%
same,percent Bodipy-positive cells,[5],56.3% and 43.6%
COC1(C2=NCCN2)COc2ccccc2O1 (centres undefined),percent Bodipy-positive cells,[5],11.6% and 7.66%
c1([C@]2(C(=O)OC)c3c(c4c(cccc4)[nH]3)CN(CC5C2)CC(CC)=C5)cc6c(N(C)[C@]7([H])[C@]6(CC8)[C@]([H])(N89)[C@@](CC)(C=CC9)[C@@H](OC(=O)C)[C@]7(O)C(=O)OC)cc1OC.C(=O)(O)[C@H](O)[C@@H](O)C(=O)O.C(=O)(O)[C@H](O) (some centres undefined) [Vinorelbine Tartrate],percent Bodipy-positive cells,[4],99.01 ± 0.67%
same,percent Bodipy-positive cells,[5],99.83 ± 0.23%
CC(O)Cn1cnc2c1c(=O)n(C)c(=O)n2C (centres undefined) [Proxyphylline],percent Bodipy-positive cells,,8.63 ± 2.3%
CCCCC/C=C\C/C=C\C/C=C\C/C=C\CCCC(=O)OC(COCCCCCCCCCCCCCCCC)COP(=O)([O-])OCC[N+](C)(C)C (centres undefined) [Arachidonoyl PAF C-16],percent Bodipy-positive cells,[6],12.1 ± 3%
"Nc1cc(=O)[nH]c(N)n1 [2,4-Diamino-6-pyrimidinone]",percent Bodipy-positive cells,[5],27.8 ± 0.84%
O=C(OOC(=O)c1ccccc1)c1ccccc1 [Benzoyl peroxide],percent Bodipy-positive cells,library stock concentration: 8.3 mM,22.8 ± 14%
N[C@@H](Cc1c[nH]c2ccccc12)C(=O)O [L-Tryptophan],percent Bodipy-positive cells,[5],18.5 ± 5%
N[C@@H](Cc1c[nH]c2ccccc12)C(=O)O [Tryptophan],percent Bodipy-positive cells,[5],23.6 ± 1.5%
CCC1(C)OC(=O)N(C)C1=O (centres undefined),percent Bodipy-positive cells,[5],26.9 ± 0.42%
NC(=O)CCCCn1ccc(NC(N)=NCC(F)(F)F)n1,percent Bodipy-positive cells,[5],9.74 ± 0.82%
CCCCC[C@@](C)(O)/C=C/[C@H]1C(=O)C[C@H](O)[C@@H]1C/C=C\CCCC(=O)O [15(R)-15-methyl Prostaglandin D2],percent Bodipy-positive cells,[6],15.2 ± 3.8%
"CCCCC(C)(C)[C@H](O)/C=C/[C@H]1C=CC(=O)[C@@H]1CCCCCCC(=O)O [16,16-dimethyl Prostaglandin A1]",percent Bodipy-positive cells,[6],8.24 ± 0.51%
OCc1c[nH]c2ccccc12 [Indole-3-carbinol],percent Bodipy-positive cells,[4],11 ± 2.8%
same,percent Bodipy-positive cells,[5],22.4 ± 14%
COC(=O)C1=C(C)NC(C)=C([N+](=O)[O-])[C@H]1c1ccccc1C(F)(F)F,percent Bodipy-positive cells,[5],6.26 ± 1.6%
O=C(Nc1ccccc1)C12CC1C(=NO)c1ccccc1O2 (centres undefined),percent Bodipy-positive cells,[5],7.44 ± 2.6%
N#CCNC(=O)c1ccc(-c2ccnc(Nc3ccc(N4CCOCC4)cc3)n2)cc1,percent Bodipy-positive cells,[1],17.7 ± 4.7%
same,percent Bodipy-positive cells,[2],20.4 ± 3.8%
same,percent Bodipy-positive cells,[3],13 ± 1.3%
same,percent Bodipy-positive cells,[5],98.5 ± 2.1%
N#CCNC(=O)c1ccc(-c2ccnc(Nc3ccc(N4CCOCC4)cc3)n2)cc1 [Momelotinib (CYT387) (0.4 mM)],percent Bodipy-positive cells,[2],12.6 ± 6%
O=C(/C=C/c1ccc(O)cc1)c1ccc(O)cc1O [Isoliquiritigenin],percent Bodipy-positive cells,[4],8.73 ± 1.2%
Cc1c(NC(=O)c2cccnc2)c(=O)n(-c2ccccc2)n1C [Nifenazone],percent Bodipy-positive cells,,27.5 ± 7.6%
same,percent Bodipy-positive cells,[5],38.7 ± 6.2%
CS(=O)(=O)OCCCCOS(C)(=O)=O [Busulfan],percent Bodipy-positive cells,[4],9.72 ± 0.8%
same,percent Bodipy-positive cells,library stock concentration: 8.1 mM,4.43 ± 1.5%
same,percent Bodipy-positive cells,[5],11.8% and 12.3% and 23.8%
CN(C)C(=O)c1ccc(S(=O)(=O)c2ccc(NC(=O)C(C)(O)C(F)(F)F)c(Cl)c2)cc1 (centres undefined),percent Bodipy-positive cells,[4],37.3 ± 10%
same,percent Bodipy-positive cells,[5],33.2 ± 3.5%
CC[C@@H]1C(=O)OC[C@@H]1Cc1cncn1C [Pilocarpine nitrate],percent Bodipy-positive cells,,27.4 ± 2.8%
same,percent Bodipy-positive cells,[5],20.5% and 27.1%
CC[C@@H]1C(=O)OC[C@@H]1Cc1cncn1C,percent Bodipy-positive cells,[5],10.1 ± 2.1%
CC[C@@H]1C(=O)OC[C@@H]1Cc1cncn1C [Pilocarpine hydrochloride],percent Bodipy-positive cells,[5],5.61 ± 0.33%
CC[C@@H]1C(=O)OC[C@@H]1Cc1cncn1C [Pilocarpine HCl],percent Bodipy-positive cells,[4],12.3 ± 0.17%
same,percent Bodipy-positive cells,library stock concentration: 9.6 mM,10.2 ± 1.5%
same,percent Bodipy-positive cells,[5],41.8 ± 5.9%
CC[C@@H]1C(=O)OC[C@@H]1Cc1cncn1C [(+)-Pilocarpine hydrochloride],percent Bodipy-positive cells,[5],23.1 ± 3.1%
CN1CCc2c(c3ccccc3n2Cc2ccc(C(=O)NO)cc2)C1 [Tubastatin A HCl],percent Bodipy-positive cells,[4],13.4 ± 9.4%
same,percent Bodipy-positive cells,[5],56.2 ± 11%
CN1CCc2c(c3ccccc3n2Cc2ccc(C(=O)NO)cc2)C1 [Tubastatin A],percent Bodipy-positive cells,[4],7.94 ± 0.69%
same,percent Bodipy-positive cells,[5],6.35 ± 1.7%
CC(=N)NCCCC[C@H](N)C(=O)O [L-NIL hydrochloride],percent Bodipy-positive cells,[5],5.45 ± 0.95%
CN1C(=O)CC[C@H]1c1cccnc1 [Cotinine],percent Bodipy-positive cells,[5],8.13 ± 3.8%
same,percent Bodipy-positive cells,library stock concentration: 11.3 mM,2.62 ± 1.1%
CN1C(=O)CC[C@H]1c1cccnc1 [Cotinine (-)],percent Bodipy-positive cells,,24.3 ± 8.4%
O=C(O)CCC/C=C\C[C@@H]1[C@@H](/C=C/C(=O)CCc2ccccc2)[C@H](O)C[C@@H]1O [15-keto-17-phenyl trinor Prostaglandin F2.alpha.],percent Bodipy-positive cells,[6],13.5 ± 3.3%
Cc1c(CN2CCN(C(=O)[C@H](C)O)CC2)sc2c(N3CCOCC3)nc(-c3cnc(N)nc3)nc12,percent Bodipy-positive cells,[1],25.3 ± 8.9%
same,percent Bodipy-positive cells,[2],11.6 ± 3%
same,percent Bodipy-positive cells,[3],6.83 ± 1.8%
same,percent Bodipy-positive cells,[4],7.73 ± 2.8%
same,percent Bodipy-positive cells,[5],9.3% and 6.31%
CC(C)(CO)c1cc2cc(NC(=O)C3(c4ccc5c(c4)OC(F)(F)O5)CC3)c(F)cc2n1C[C@@H](O)CO,percent Bodipy-positive cells,[4],11.3 ± 5%
same,percent Bodipy-positive cells,[5],28.5 ± 1%

# No new results follow: entries from further up.
smiles,measurement,setting,value
CC[C@@H]1C(=O)OC[C@@H]1Cc1cncn1C [Pilocarpine nitrate],percent Bodipy-positive cells,,27.4 ± 2.8%
same,percent Bodipy-positive cells,[5],20.5% and 27.1%
CC[C@@H]1C(=O)OC[C@@H]1Cc1cncn1C,percent Bodipy-positive cells,[5],10.1 ± 2.1%
CC[C@@H]1C(=O)OC[C@@H]1Cc1cncn1C [Pilocarpine hydrochloride],percent Bodipy-positive cells,[5],5.61 ± 0.33%
